# EP0638566B1, “5-Aminoflavone derivatives, their preparation and their use as antibacterial, anti-estrogenic and/or antitumor agent” (KYOWA HAKKO KOGYO CO., LTD., priority 1993, dated 1995)
# Tested on: Human mammary cancer MCF-7 cell
# Assay: Human mammary cancer MCF-7 cell growth inhibition test (neutral red)
# Format: cell-based
# Settings: MCF7, MCF-7 cells, medium with 10^-8M estradiol, 72 hours, absorbance at 550 nm
# Procedure: Human mammary cancer MCF-7 cell growth inhibition test
# Each 0.1 ml of MCF-7 cells which had been prepared to 5 x 10^4/ml using a medium (referred to as Medium B hereinafter) prepared by adding 10% bovine fetal serum, 10^-8M estradiol (manufactured by Sigma), 100 units/ml penicillin and 100 µg/ml streptomycin to RPMI1640 medium was distributed in each well of 96 well-microtiter plate. The plate was cultured at 37 °C for 20 hours in a CO2 gas incubator, each 0.05 ml of samples (test compound) which had been appropriately diluted with Medium B was added thereto and the mixture was cultured at 37 °C for 72 hours in a CO2 gas incubator. Supernatant was removed, each 0.1 ml of Medium B containing 0.02% neutral red was added to the residue, the mixture was cultured at 37 °C for 1 hour in a CO2 gas incubator and the cells were stained by neutral red dye. Supernatant was removed and the residue was washed once with a physiological saline. Then, the dye was extracted with 0.001N hydrochloric acid/30% ethanol and the absorbance at 550 nm was determined with a microplatereader. Sample concentration at which the growth of cell is inhibited by 50% (IC50) was calculated by comparing the absorbance of untreated cells and sample-treated cells.
compound,measurement,value
CC/C(=C(\c1ccccc1)c1ccc(OCCN(C)C)cc1)c1ccccc1 [Tamoxifen],IC50,23 µM
